Reference: the supplement of paper PMC10849652
Some of the results follow.

Chains of the proteins cited; added tags and fusions are not shown. Lines headed by an entry give the natural chain unless they say otherwise; changes in a name come on top.
UniProt P04632: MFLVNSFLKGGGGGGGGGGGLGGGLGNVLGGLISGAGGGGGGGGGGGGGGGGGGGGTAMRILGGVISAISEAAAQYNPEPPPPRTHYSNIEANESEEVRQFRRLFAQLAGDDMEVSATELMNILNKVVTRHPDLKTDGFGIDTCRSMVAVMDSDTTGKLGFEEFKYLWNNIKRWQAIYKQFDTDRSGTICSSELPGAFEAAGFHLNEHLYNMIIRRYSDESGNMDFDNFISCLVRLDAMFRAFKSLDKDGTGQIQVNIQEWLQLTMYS
UniProt Q6P1X6: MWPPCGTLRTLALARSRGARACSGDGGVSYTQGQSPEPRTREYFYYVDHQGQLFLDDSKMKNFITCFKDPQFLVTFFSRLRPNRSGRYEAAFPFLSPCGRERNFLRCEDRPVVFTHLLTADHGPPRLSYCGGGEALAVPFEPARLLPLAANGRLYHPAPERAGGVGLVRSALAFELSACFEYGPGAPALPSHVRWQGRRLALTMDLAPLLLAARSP
UniProt P47756, whole entry, looked up: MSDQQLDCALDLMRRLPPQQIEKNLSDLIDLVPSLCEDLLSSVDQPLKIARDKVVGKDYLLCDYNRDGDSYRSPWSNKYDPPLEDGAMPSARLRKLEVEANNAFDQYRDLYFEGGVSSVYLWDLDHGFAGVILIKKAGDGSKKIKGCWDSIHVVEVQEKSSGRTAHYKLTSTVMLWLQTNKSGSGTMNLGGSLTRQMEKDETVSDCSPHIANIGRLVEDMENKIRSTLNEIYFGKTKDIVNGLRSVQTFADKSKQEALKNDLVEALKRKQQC
UniProt Q9BSU1: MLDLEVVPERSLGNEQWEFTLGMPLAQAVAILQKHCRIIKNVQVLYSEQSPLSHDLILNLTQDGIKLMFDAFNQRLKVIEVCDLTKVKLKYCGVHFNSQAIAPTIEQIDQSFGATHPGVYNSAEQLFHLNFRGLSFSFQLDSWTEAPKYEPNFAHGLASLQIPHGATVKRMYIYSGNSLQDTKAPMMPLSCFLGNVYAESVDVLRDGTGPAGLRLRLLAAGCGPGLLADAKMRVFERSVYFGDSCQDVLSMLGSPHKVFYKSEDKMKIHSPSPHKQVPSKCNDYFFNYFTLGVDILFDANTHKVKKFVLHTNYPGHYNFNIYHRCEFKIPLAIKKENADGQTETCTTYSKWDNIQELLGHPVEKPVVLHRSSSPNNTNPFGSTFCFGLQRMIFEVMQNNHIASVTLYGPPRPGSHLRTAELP
UniProt Q9BPX7: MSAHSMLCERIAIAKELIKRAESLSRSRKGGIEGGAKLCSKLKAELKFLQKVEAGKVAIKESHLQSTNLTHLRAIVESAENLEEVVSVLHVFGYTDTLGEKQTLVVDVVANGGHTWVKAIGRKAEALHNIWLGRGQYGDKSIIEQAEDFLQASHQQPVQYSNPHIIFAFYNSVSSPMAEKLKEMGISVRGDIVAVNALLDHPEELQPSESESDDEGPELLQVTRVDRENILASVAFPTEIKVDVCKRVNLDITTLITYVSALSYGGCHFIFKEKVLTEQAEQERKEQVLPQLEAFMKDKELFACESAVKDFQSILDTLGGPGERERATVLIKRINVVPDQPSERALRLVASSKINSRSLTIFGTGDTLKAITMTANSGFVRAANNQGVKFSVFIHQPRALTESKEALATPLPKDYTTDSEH
UniProt Q8IYL3: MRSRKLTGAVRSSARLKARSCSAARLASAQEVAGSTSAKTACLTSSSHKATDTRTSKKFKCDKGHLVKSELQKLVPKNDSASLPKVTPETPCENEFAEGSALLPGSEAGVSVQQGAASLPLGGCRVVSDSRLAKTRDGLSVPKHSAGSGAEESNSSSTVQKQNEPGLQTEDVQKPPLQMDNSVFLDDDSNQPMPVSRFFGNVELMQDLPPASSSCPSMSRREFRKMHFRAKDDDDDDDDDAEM
UniProt O00478: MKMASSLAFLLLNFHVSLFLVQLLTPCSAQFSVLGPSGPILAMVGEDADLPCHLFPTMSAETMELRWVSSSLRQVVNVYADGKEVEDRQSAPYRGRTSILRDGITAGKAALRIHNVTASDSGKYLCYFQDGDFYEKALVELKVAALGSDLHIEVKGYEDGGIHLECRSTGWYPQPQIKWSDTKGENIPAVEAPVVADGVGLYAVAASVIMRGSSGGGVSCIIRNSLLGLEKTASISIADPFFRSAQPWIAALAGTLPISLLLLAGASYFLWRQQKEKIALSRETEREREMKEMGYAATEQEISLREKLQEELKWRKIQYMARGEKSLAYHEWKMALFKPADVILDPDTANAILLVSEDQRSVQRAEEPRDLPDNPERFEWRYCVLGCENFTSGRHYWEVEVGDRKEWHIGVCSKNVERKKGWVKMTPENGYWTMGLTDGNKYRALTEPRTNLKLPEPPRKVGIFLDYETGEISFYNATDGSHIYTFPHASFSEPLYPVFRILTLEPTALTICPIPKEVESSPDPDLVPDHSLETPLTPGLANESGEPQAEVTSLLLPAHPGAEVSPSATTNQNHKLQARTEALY
UniProt Q3KRA6: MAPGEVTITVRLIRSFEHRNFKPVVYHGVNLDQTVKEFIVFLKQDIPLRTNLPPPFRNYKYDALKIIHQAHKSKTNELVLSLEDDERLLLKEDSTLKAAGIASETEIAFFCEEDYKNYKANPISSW
UniProt Q5U649: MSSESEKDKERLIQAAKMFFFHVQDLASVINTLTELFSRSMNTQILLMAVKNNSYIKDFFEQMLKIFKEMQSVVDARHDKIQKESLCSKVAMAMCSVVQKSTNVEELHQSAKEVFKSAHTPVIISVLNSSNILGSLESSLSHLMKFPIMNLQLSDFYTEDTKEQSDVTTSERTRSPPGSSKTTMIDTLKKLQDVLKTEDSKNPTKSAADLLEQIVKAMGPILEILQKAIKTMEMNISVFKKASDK
UniProt Q08AD1: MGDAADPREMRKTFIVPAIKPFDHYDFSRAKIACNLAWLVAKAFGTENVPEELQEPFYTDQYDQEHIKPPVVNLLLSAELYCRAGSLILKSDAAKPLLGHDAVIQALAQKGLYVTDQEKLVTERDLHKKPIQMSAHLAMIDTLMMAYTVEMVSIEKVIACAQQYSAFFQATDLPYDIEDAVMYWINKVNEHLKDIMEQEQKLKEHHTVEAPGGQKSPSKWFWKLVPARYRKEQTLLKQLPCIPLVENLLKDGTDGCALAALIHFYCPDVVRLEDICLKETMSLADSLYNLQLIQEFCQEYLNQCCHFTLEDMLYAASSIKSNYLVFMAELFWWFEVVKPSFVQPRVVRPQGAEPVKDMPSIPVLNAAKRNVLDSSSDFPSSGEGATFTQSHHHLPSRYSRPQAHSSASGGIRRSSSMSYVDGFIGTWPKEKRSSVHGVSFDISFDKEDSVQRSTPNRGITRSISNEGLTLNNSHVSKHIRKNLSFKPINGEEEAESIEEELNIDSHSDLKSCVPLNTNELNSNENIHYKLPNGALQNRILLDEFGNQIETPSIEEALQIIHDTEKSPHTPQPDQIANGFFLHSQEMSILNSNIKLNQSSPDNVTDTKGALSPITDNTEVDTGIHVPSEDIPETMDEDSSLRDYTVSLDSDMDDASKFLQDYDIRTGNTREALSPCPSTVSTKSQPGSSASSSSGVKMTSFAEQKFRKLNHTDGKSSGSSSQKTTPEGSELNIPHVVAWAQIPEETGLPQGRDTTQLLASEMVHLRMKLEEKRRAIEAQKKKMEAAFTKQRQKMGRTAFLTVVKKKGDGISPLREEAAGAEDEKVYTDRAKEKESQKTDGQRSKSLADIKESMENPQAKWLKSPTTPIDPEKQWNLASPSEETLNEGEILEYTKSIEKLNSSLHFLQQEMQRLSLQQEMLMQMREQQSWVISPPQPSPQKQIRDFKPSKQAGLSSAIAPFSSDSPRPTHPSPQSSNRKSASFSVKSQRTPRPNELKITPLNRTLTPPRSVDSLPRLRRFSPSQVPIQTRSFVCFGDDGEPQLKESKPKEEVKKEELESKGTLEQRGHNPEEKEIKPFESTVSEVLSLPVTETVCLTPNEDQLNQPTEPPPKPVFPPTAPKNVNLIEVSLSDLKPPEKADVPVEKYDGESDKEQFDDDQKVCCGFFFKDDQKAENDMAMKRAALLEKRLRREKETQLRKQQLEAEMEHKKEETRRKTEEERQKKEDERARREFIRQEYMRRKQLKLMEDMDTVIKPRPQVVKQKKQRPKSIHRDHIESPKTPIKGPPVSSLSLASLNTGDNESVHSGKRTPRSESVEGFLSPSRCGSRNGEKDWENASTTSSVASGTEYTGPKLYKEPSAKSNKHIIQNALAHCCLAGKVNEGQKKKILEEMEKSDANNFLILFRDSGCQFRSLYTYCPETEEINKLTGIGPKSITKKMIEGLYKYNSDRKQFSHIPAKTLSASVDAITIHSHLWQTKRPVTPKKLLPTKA
UniProt Q86VG3: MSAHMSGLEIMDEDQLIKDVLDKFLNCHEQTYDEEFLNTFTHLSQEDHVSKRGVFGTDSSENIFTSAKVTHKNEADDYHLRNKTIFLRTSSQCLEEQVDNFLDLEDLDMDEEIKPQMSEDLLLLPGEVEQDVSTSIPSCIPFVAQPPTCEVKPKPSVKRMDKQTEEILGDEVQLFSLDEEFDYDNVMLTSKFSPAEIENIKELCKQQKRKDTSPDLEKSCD
UniProt Q9BX69: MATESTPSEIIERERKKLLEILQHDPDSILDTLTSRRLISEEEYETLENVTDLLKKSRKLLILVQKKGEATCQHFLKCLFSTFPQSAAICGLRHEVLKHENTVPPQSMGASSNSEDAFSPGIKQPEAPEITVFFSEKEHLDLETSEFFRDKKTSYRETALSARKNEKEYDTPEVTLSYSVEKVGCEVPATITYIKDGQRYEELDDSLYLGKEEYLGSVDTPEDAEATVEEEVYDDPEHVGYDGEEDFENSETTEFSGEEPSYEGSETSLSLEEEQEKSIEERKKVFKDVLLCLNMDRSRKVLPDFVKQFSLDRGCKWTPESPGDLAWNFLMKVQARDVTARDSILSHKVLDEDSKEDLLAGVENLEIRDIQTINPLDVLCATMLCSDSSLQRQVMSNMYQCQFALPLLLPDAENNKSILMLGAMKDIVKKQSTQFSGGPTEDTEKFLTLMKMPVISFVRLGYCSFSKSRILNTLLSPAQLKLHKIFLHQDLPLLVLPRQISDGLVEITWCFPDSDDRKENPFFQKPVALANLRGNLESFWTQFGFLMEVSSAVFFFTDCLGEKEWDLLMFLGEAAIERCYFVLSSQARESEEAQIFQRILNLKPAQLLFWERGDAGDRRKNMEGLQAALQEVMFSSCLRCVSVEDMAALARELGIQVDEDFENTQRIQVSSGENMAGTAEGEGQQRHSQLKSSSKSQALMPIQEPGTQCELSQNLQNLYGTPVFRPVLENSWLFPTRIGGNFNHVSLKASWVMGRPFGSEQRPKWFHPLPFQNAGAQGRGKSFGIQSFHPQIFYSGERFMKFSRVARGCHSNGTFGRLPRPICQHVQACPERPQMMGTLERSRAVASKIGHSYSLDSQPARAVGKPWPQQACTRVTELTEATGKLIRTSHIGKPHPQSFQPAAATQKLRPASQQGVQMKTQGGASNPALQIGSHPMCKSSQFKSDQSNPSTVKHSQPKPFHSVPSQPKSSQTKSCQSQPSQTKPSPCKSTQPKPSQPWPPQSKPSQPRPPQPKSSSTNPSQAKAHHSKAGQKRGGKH
UniProt Q9BUW7: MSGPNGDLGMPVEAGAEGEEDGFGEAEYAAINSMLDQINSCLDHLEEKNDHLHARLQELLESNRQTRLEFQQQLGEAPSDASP
UniProt Q99622: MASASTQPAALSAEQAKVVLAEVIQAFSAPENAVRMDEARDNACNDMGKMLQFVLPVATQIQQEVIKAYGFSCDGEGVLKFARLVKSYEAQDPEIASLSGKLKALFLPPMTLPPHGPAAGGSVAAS
UniProt P04003: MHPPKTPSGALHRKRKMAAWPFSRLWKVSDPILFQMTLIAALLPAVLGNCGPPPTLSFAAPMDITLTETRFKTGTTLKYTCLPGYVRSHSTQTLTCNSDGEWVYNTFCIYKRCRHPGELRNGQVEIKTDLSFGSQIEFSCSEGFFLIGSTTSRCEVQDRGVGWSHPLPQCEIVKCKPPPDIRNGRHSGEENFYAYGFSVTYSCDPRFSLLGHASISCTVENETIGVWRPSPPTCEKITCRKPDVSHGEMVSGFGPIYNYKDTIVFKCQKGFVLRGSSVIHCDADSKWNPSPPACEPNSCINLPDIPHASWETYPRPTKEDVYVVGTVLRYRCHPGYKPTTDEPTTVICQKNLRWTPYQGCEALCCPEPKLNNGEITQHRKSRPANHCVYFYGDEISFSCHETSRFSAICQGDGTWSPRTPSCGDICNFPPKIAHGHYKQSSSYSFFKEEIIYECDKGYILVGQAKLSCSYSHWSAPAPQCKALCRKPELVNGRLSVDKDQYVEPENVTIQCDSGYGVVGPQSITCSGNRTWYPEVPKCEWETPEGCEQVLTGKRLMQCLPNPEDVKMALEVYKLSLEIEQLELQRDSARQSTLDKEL
UniProt Q96GV9: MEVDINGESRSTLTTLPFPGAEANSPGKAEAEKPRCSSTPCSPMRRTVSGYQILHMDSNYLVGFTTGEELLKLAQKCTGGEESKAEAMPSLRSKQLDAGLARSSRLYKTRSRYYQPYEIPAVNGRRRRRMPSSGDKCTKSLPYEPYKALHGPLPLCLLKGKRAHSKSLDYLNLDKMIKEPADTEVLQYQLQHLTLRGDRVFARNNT

What was measured:
Test in all cases: log2 fold change, soluble protein after heating vs DMSO (PISA); higher = thermal stabilisation; K562 lysate, 10 uM; active = over 0.2 and 3.5 SD of the protein, either way, in both replicates (recomputed)
[1] = compound: CCCS(=O)(=O)Nc1ccc(F)c(C(=O)c2c[nH]c3ncc(-c4ccc(Cl)cc4)cc23)c1F [vemurafenib]
In short: (§1)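 Following dounce homogenisation of K562 pellets in PBS pH 7.4 with 1 mM MgCl2, crude extract at 1 mg/mL protein was incubated for 30 min with 10 μM compound. Aliquots were then heated for 3 min over 48°C-58°C and pooled, NP-40 was added to 0.5% at 4°C, and soluble protein was recovered as the supernatant at 21,000xg for 90 min. Channel-sum-equalised TMTpro 16plex LC-MS/MS quantified this protein. Each value, from duplicates, is a log-two fold change in thermal stability relative to solvent controls.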

[2] = compound: CCCS(=O)(=O)Nc1ccc(F)c(C(=O)c2c[nH]c3ncc(Cl)cc23)c1F
In short: as §1

[3] = compound: CCN(CCCOc1ccc2c(Nc3cc(CC(=O)Nc4cccc(F)c4)[nH]n3)ncnc2c1)CCOP(=O)(O)O [barasertib]
In short: as §1

[4] = compound: CC[C@@H]1C(=O)N(C)c2cnc(Nc3ccc(C(=O)NC4CCN(C)CC4)cc3OC)nc2N1C1CCCC1
In short: as §1

[5] = compound: CC[C@@H]1C(=O)N(C)c2cnc(Nc3ccc(C(=O)N[C@H]4CC[C@H](N5CCN(CC6CC6)CC5)CC4)cc3OC)nc2N1C(C)C [volasertib]
In short: as §1

[6] = compound: CCn1c(C(=O)N(C2CC2)C2CC2)cc2c3c(ncn3C)c(Nc3cc(C)n(C)n3)nc21
In short: as §1

[7] = compound: CCn1cc(-c2ccnc3[nH]c(-c4cccc(CN(C)C)c4)cc23)c(-c2ccc(NC(=O)N(C)C)cc2)n1
In short: as §1

[8] = compound: CN1CCC(CNc2ccc3ncc(-c4cccc(OC(F)(F)F)c4)n3n2)CC1
In short: as §1

[9] = compound: CN1CCN(CCOc2cc(OC3CCOCC3)c3c(Nc4c(Cl)ccc5c4OCO5)ncnc3c2)CC1 [saracatinib]
In short: as §1

[10] = compound: CN1CCN(c2nc(C3=C(c4c[nH]c5ccccc45)C(=O)NC3=O)c3ccccc3n2)CC1 [sotrastaurin]
In short: as §1

Measured: log2 fold change

C7orf50 (UniProt Q9BRJ6)
inactive: [1] -0.007 | [2] 0.047 | [3] 0.026 | [4] -0.014 | [5] 0.048 | [6] -0.084 | [7] 0.004 | [8] -0.019 | [9] -0.041 | [10] 0.005

CAPN15 (UniProt O75808)
inactive: [1] 0.04 | [2] -0.046 | [3] 0.077 | [4] -0.007 | [5] 0.027 | [6] 0.013 | [7] 0.037 | [8] 0.016 | [9] 0.032 | [10] -0.091

CAPNS1 (UniProt P04632)
active: [7] -0.334
inactive: [1] -0.032 | [2] 0.021 | [3] 0.11 | [4] -0.027 | [5] 0.04 | [6] -0.006 | [8] 0.07 | [9] 0.003 | [10] -0.012

C8orf82 (UniProt Q6P1X6)
inactive: [1] 0.031 | [2] 0.013 | [3] 0.011 | [4] -0.005 | [5] 0.003 | [6] 0.006 | [7] 0.016 | [8] -0.01 | [9] 0.077 | [10] -0.039

C19orf53 (UniProt Q9UNZ5)
inactive: [1] -0.104 | [2] -0.03 | [3] -0.02 | [4] 0.054 | [5] -0.05 | [6] -0.017 | [7] 0.091 | [8] -0.035 | [9] 0.008 | [10] 0.042

C5orf22 (UniProt Q49AR2)
inactive: [1] 0.007 | [2] -0.028 | [3] -0.043 | [4] 0.024 | [5] -0.003 | [6] -0.052 | [7] -0.101 | [8] 0.007 | [9] 0.001 | [10] 0

BUB1B isoform 3 (UniProt O60566)
inactive: [1] 0.024 | [2] 0.024 | [3] 0.03 | [4] -0.012 | [5] -0.014 | [6] 0.01 | [7] 0.13 | [8] -0.05 | [9] -0.006 | [10] 0.009

CAPZB isoform 2 (UniProt P47756)
inactive: [1] -0.005 | [2] -0.084 | [3] -0.022 | [4] 0.012 | [5] 0.022 | [6] 0.034 | [7] -0.079 | [8] 0.044 | [9] 0.003 | [10] -0.024

C4orf33 (UniProt Q8N1A6)
inactive: [1] -0.014 | [2] -0.045 | [3] 0.009 | [4] -0.018 | [5] 0.013 | [6] -0.046 | [7] -0.112 | [8] 0.091 | [9] -0.014 | [10] 0.038

C8orf33 isoform 2 (UniProt Q9H7E9)
inactive: [1] 0.019 | [2] 0.035 | [3] -0.009 | [4] 0.062 | [5] 0.004 | [6] 0.101 | [7] 0.094 | [8] 0.019 | [9] 0.082 | [10] 0.005

BYSL (UniProt Q13895)
inactive: [1] 0.039 | [2] 0.013 | [3] 0.047 | [4] -0.073 | [5] -0.026 | [6] 0.024 | [7] -0.007 | [8] -0.064 | [9] 0 | [10] 0.019

CAPZA2 (UniProt P47755)
inactive: [1] -0.032 | [2] 0.007 | [3] -0.02 | [4] -0.053 | [5] -0.017 | [6] -0.013 | [7] 0.024 | [8] -0.015 | [9] 0.001 | [10] -0.011

C16orf70 (UniProt Q9BSU1)
inactive: [1] 0.053 | [2] 0.086 | [3] -0.016 | [4] 0 | [5] -0.038 | [6] 0.018 | [9] -0.037 | [10] 0.031

C7orf25 isoform 2 (UniProt Q9BPX7)
inactive: [1] -0.309 | [2] 0.087 | [3] 0.057 | [4] 0.049 | [5] 0.005 | [6] -0.051 | [7] 0.154 | [8] -0.097 | [9] 0.157 | [10] -0.052

C1orf131 isoform 5 (UniProt Q8NDD1)
inactive: [1] 0.034 | [2] 0.026 | [4] 0.148 | [5] -0.029 | [6] -0.042 | [7] -0.242 | [8] 0.095 | [9] -0.009 | [10] 0.017

CAPN1 (UniProt E9PLX0)
inactive: [1] -0.211 | [2] 0.164 | [4] 0.076 | [5] 0.099 | [6] -0.128 | [7] 0.49 | [8] 0.145 | [10] -0.037

C1orf174 (UniProt Q8IYL3)
inactive: [1] 0.054 | [2] 0.04 | [3] 0.03 | [5] 0.037 | [6] -0.069 | [7] -0.048 | [8] 0.122 | [9] -0.075 | [10] 0.017

BTN3A3 (UniProt O00478)
inactive: [1] -0.006 | [3] 0.095 | [6] 0.05 | [7] -0.038 | [8] 0.028 | [9] -0.086 | [10] -0.033

C2orf76 (UniProt Q3KRA6)
inactive: [2] 0.049 | [3] 0.029 | [4] 0.096 | [5] -0.005 | [6] -0.01 | [7] -0.005 | [8] -0.039 | [9] -0.023 | [10] 0.037

CAND1 (UniProt F5H6I6)
inactive: [2] 0.053 | [3] 0.246 | [4] 0.406 | [5] 0.01 | [6] -0.12 | [9] -0.028 | [10] -0.028

C12orf60 (UniProt Q5U649)
inactive: [1] -0.374 | [6] 0.38 | [9] -0.038 | [10] 0.097

CAMSAP2 (UniProt Q08AD1)
inactive: [1] 0.135 | [4] -0.085 | [6] 0.132 | [7] -0.282 | [8] -0.011 | [9] -0.033 | [10] 0.041

C17orf80 (UniProt Q9BSJ5)
inactive: [1] -0.064 | [2] 0.015 | [5] 0.001 | [7] -0.134 | [8] 0.056 | [10] 0.044

C11orf74 (UniProt Q86VG3)
inactive: [1] 0.072 | [4] -0.061 | [6] 0.148 | [9] 0.043 | [10] -0.001

CARD6 (UniProt Q9BX69)
inactive: [1] 0.08 | [9] -0.113 | [10] -0.05

C6orf62 (UniProt Q9GZU0)
inactive: [1] 0.032 | [7] 0.315 | [8] -0.097 | [9] -0.313 | [10] 0.189

C9orf16 (UniProt Q9BUW7)
inactive: [1] 0.177 | [4] 0.093 | [6] -0.072 | [7] 0.242 | [8] -0.036 | [9] -0.039 | [10] 0.098

Retrieved one by one from the list above (three):
C17orf80 (UniProt Q9BSJ5)
inactive: [1] -0.064 | [2] 0.015 | [5] 0.001 | [7] -0.134 | [8] 0.056 | [10] 0.044

C11orf74 (UniProt Q86VG3)
inactive: [1] 0.072 | [4] -0.061 | [6] 0.148 | [9] 0.043 | [10] -0.001

CAMSAP2 (UniProt Q08AD1)
inactive: [1] 0.135 | [4] -0.085 | [6] 0.132 | [7] -0.282 | [8] -0.011 | [9] -0.033 | [10] 0.041

More entries

CANX (UniProt D6RHJ3)
inactive: [1] -0.033 | [2] -0.04 | [5] 0.017

C12orf57 (UniProt Q99622)
inactive: [1] -1.08 | [9] -0.077 | [10] -0.047

C1orf226 isoform 2 (UniProt A1L170)
inactive: [1] 0.192 | [2] -0.014 | [5] -0.034 | [6] 0.064

C1GALT1 (UniProt Q9NS00)
inactive: [1] 0 | [2] -0.027 | [5] -0.125 | [6] -0.055 | [7] 0.087 | [8] -0.023 | [9] -0.039 | [10] 0.006

C4BPA (UniProt P04003)
inactive: [1] -0.156 | [2] 0.045 | [5] -0.059 | [6] -0.042 | [7] -0.069 | [8] 0.06 | [9] 0.168 | [10] -0.014

CAPNS1 (UniProt K7ES78)
inactive: [1] 0.143 | [2] -0.07 | [5] 0.033 | [6] 0.076 | [9] 0.12 | [10] -0.071

C5orf30 (UniProt Q96GV9)
inactive: [1] 0.013 | [3] 0.08 | [4] 0.091 | [6] 0.036 | [7] 0.003 | [8] -0.05 | [9] -0.025 | [10] 0.034
